# Laboratory results reported in PubChem BioAssay AID212 (DTP/NCI, 2004).
# The list does not hold the whole screen: it gathers tests that were run many times, whatever their T/C, doses with no T/C, and many T/C values between a quarter and a half above the control. Further doses and runs are listed elsewhere. T/C is the treated group as % of the vehicle group. Schedules are NCI's codes, read here as Q, the interval in days (D) or hours (H), X, the number of doses. Some doses were run more than once; the values are given in rising order. Some T/C values carry the count of animals alive at the toxicity check (mostly the fifth day); without a count, all were alive then. Some doses have a count of surviving animals in place of a T/C: the source holds a T/C of zero for them, seemingly a mark for toxic or unscored doses. Survivors were counted at the toxicity check, usually on the fifth day, unless a day is given; later deaths do not show.
# Test system: BDF1 mice, colon carcinoma 38 sc, T/C %
# Assay: NCI In Vivo Anticancer Drug Screen. Data for tumor model Colon Carcinoma 38 (subcutaneous) in B6D2F1 (BDF1) mice
# Settings: T/C endpoint: median tumor weight (est.), higher T/C = larger tumour; for T/C: evaluated on day 20
# Protocol: The antitumor activity of compounds was measured in mice bearing transplantable tumors. Survival or tumor size were measured and the results are expressed as the measurement made in the treated group (T) divided by the measurement made in the vehicle treated control group (C). The tumor model used in this assay is Colon Carcinoma 38 (subcutaneous) in B6D2F1 (BDF1) mice
# [1] = dose: 0.5 mg/kg/injection, schedule: Q07DX002 (ip), vehicle: saline + alcohol
# [2] = dose: 1.0 mg/kg/injection, schedule: Q07DX002 (ip), vehicle: saline + alcohol
# [3] = dose: 2.0 mg/kg/injection, schedule: Q07DX002 (ip), vehicle: saline + alcohol
# [4] = dose: 4.0 mg/kg/injection, schedule: Q07DX002 (ip), vehicle: saline + alcohol
# [5] = dose: 8.0 mg/kg/injection, schedule: Q07DX002 (ip), vehicle: saline + alcohol
# [6] = dose: 400.0 mg/kg/injection, schedule: Q07DX002 (ip), vehicle: saline
# [7] = dose: 200.0 mg/kg/injection, schedule: Q07DX002 (ip), vehicle: saline with Tween-80
# [8] = dose: 400.0 mg/kg/injection, schedule: Q07DX002 (ip), vehicle: saline with Tween-80
# [9] = dose: 50.0 mg/kg/injection, schedule: Q07DX002 (ip), vehicle: Klucel (hydroxypropylcellulose) (HPC)
# [10] = dose: 400.0 mg/kg/injection, schedule: Q07DX002 (ip), vehicle: Klucel (hydroxypropylcellulose) (HPC)
# [11] = dose: 25.0 mg/kg/injection, schedule: Q07DX002 (ip), vehicle: Klucel (hydroxypropylcellulose) (HPC)
# [12] = dose: 200.0 mg/kg/injection, schedule: Q07DX002 (ip), vehicle: saline
# [13] = dose: 100.0 mg/kg/injection, schedule: Q07DX002 (ip), vehicle: saline with Tween-80
# [14] = dose: 50.0 mg/kg/injection, schedule: Q07DX002 (ip), vehicle: saline with Tween-80
# [15] = dose: 100.0 mg/kg/injection, schedule: Q07DX002 (ip), vehicle: saline
smiles,measurement,setting,value
COC(=O)C12OCC34C(CC5C(C)=CC(=O)C(O)C5(C)C3C(O)C1O)OC(=O)C(OC(=O)CC(C)C)C24 (stereo not given),T/C,[1],"85, 113, 139 % of control"
same,survivor count,[1],6 of 10 on day 20
same,T/C,[2],"82 [9 of 10 alive on day 20], 99, 103 % of control"
same,survivor count,[2],4 of 10 on day 20
same,T/C,[3],"33 [9 of 10 alive on day 20], 58, 88 % of control"
same,survivor count,[3],2 of 10 on day 20
same,T/C,[4],"9 [9 of 10 alive on day 20], 23 [8 of 10 alive on day 20], 67 % of control [7 of 10 alive on day 20]"
same,survivor count,[4],1 of 10 on day 20
same,T/C,[5],11 % of control [9 of 10 alive on day 20]
same,survivor count,[5],"1 of 10 on day 20, 2 of 10 on day 20, 4 of 10 on day 20"
Cc1cn(C2CC3[O][Sn]([c]4ccccc4)([c]4ccccc4)[O]CC3O2)c(=O)[nH]c1=O (stereo not given),survivor count,[6],3 of 10 on day 20
Cc1oc2c(C)c3oc(=O)cc(C)c3cc2c1CCl,survivor count,[7],5 of 10 on day 20
same,survivor count,[8],0 of 10 on day 20
O=C(CC(=O)C(F)(F)F)c1csc2ccccc12,T/C,[9],127 % of control
same,survivor count,[10],0 of 10 on day 20
Nc1cc2c3c(cccc3c1)C(=O)N(CCN1CCCC1)C2=O,T/C,"dose: 6.25 mg/kg/injection, schedule: Q07DX002 (ip), vehicle: saline with Tween-80",140 % of control [9 of 10 alive on day 20]
same,T/C,"dose: 12.5 mg/kg/injection, schedule: Q07DX002 (ip), vehicle: saline with Tween-80",142 % of control [9 of 10 alive on day 20]
C[C@H]1C/C=C/[C@H]2[C@@H]3O[C@]3(C)[C@@H](C)[C@H]3[C@H](Cc4ccccc4)NC(=O)[C@]32OC(=O)O/C=C/[C@@](C)(O)C1=O,survivor count,[11],5 of 10 on day 20
same,survivor count,[9],1 of 10 on day 20
CN(C)CCC(=O)C(=Cc1ccc(O)cc1)C(=O)CCN(C)C,T/C,[12],135 % of control
same,survivor count,[6],2 of 10 on day 20
CC12CCC3C(CCC4CC(OC(=O)Cc5ccc(N(CCCl)CCCl)cc5)CCC43C)C1CCC(=O)N2 (stereo not given),survivor count,"dose: 48.0 mg/kg/injection, schedule: Q07DX002 (ip), vehicle: saline with Tween-80",2 of 10 on day 20 and 3 of 10 on day 20
COc1ccc(C(Cn2ccnc2)Sc2ccc(Cl)c(Cl)c2)cc1 (stereo not given),survivor count,[13],4 of 10 on day 20
same,survivor count,[7],0 of 10 on day 20
same,survivor count,[8],0 of 10 on day 20
COc1cc(O)c2c(O)c3c(c4c2c1[C@]1(C4)C(C)=CCCC1(C)C)[C@H](O)[C@@]1(O)CC(=O)C(C(N)=O)=C(O)[C@@]1(O)C3=O,survivor count,[14],3 of 10 on day 20 and 6 of 10 on day 20
same,survivor count,[13],0 of 10 on day 20 and 3 of 10 on day 20
same,survivor count,[7],0 of 10 on day 20
Nc1nc2nc[nH]c2c(=O)[nH]1,survivor count,"dose: 400.0 mg/kg/injection, schedule: Q07DX002 (ip), vehicle: suspension in saline",1 of 10 on day 20
same,survivor count,"dose: 800.0 mg/kg/injection, schedule: Q07DX002 (ip), vehicle: suspension in saline",0 of 10 on day 20
same,survivor count,"dose: 1600.0 mg/kg/injection, schedule: Q07DX002 (ip), vehicle: suspension in saline",0 of 10 on day 20
O=C1C=CC(n2cc(F)c(=O)[nH]c2=O)O1 (stereo not given),T/C,"dose: 25.0 mg/kg/injection, schedule: Q07DX002 (ip), vehicle: saline",135 % of control [9 of 10 alive on day 20]
same,T/C,"dose: 50.0 mg/kg/injection, schedule: Q07DX002 (ip), vehicle: saline",139 % of control [8 of 10 alive on day 20]
C/C=C/c1cc2c(c(=O)o1)C(=O)[C@@H](O)[C@H](C)O2,survivor count,[8],3 of 10 on day 20 and 6 of 10 on day 20
CCCC(=O)O,T/C,[15],138 % of control
same,survivor count,[6],5 of 10 on day 20
same,survivor count,"dose: 800.0 mg/kg/injection, schedule: Q07DX002 (ip), vehicle: saline",1 of 10 on day 20
CC[C@@]1(O)C[C@H](OC2CC(N(C)C)C(OC3CC(O)C(OC4CCC(=O)C(C)O4)C(C)O3)C(C)O2)c2c(cc3c(c2O)C(=O)c2c(O)ccc(O)c2C3=O)[C@H]1C(=O)OC (stereo not given in full),survivor count,"dose: 16.0 mg/kg/injection, schedule: Q07DX002 (ip), vehicle: water",0 of 10 on day 20
NC(=S)Nc1cccc2ccccc12,T/C,[14],147 % of control [9 of 10 alive on day 20]
same,survivor count,[13],2 of 10 on day 20
same,survivor count,[7],0 of 10 on day 20
C=C(NC(=O)C(=C)NC(=O)c1csc(C2=NC3c4csc(n4)C4NC(=O)c5csc(n5)C(C(C)(O)C(C)O)NC(=O)C5CSC(=N5)/C(=C/C)NC(=O)C(C(C)O)NC(=O)c5csc(n5)C3(CC2)NC(=O)C(C)NC(=O)C(=C)NC(=O)C(C)NC(=O)C(C(C)CC)NC2C=Cc3c(C(C)O)cc(nc3C2O)C(=O)OC4C)n1)C(N)=O (stereo not given),T/C,"dose: 12.5 mg/kg/injection, schedule: Q07DX003 (ip), vehicle: Klucel (hydroxypropylcellulose) (HPC)",129 and 143 % of control
same,T/C,[11],149 % of control
C(CC1CO1)C1CO1 (stereo not given),T/C,"dose: 10.0 mg/kg/injection, schedule: Q07DX002 (ip), vehicle: Klucel (hydroxypropylcellulose) (HPC)",133 % of control
same,T/C,"dose: 20.0 mg/kg/injection, schedule: Q07DX002 (ip), vehicle: Klucel (hydroxypropylcellulose) (HPC)",132 [9 of 10 alive on day 20] and 135 % of control
same,T/C,"dose: 40.0 mg/kg/injection, schedule: Q07DX002 (ip), vehicle: Klucel (hydroxypropylcellulose) (HPC)",140 % of control
same,T/C,"dose: 80.0 mg/kg/injection, schedule: Q07DX002 (ip), vehicle: Klucel (hydroxypropylcellulose) (HPC)",131 % of control
same,T/C,"dose: 160.0 mg/kg/injection, schedule: Q07DX002 (ip), vehicle: Klucel (hydroxypropylcellulose) (HPC)",144 % of control
CCCCCCCCCCCCCCCC(=O)OCC1OC(n2ccc(N)nc2=O)C(O)C1O (stereo not given),survivor count,[7],0 of 10 on day 20
same,survivor count,[8],0 of 10 on day 20
same,survivor count,"dose: 800.0 mg/kg/injection, schedule: Q07DX002 (ip), vehicle: saline with Tween-80",0 of 10 on day 20
COc1nc(=O)n(C2C=CC(=O)O2)cc1F (stereo not given),T/C,[15],135 % of control [9 of 10 alive on day 20]
same,T/C,[12],125 % of control [9 of 10 alive on day 20]
C/C(=N\NC(N)=O)c1cccc(/C(C)=N/NC(N)=O)n1,survivor count,[7],6 of 10 on day 20
same,survivor count,[8],4 of 10 on day 20
O=C(O)Cc1cccc2c(=O)cc(-c3ccco3)oc12,T/C,[15],128 % of control
same,survivor count,[6],1 of 10 on day 20
O=NN(CCCl)C(=O)Oc1cc(Cl)c(Cl)cc1Cl,survivor count,"dose: 100.0 mg/kg/injection, schedule: Q07DX002 (ip), vehicle: Klucel (hydroxypropylcellulose) (HPC)",2 of 10 on day 20
same,survivor count,"dose: 200.0 mg/kg/injection, schedule: Q07DX002 (ip), vehicle: Klucel (hydroxypropylcellulose) (HPC)",0 of 10 on day 20
same,survivor count,[10],0 of 10 on day 20
